Test results as given in patent publication US20180105596A1 (ELSALYS BIOTECH, published 2018).
Changes are numbered by the printed parent chain. These are yes or no findings as the source states them, for the method shown. Some results given as binding are weak or reduced against the parent protein; the word gives no strength. For part of these data: Sequences can lack the tags named with a protein.

T1: fibronectin type III domain FNIII-1 of human Tyro3 (human) (UniProt Q06418)
T1 sequence: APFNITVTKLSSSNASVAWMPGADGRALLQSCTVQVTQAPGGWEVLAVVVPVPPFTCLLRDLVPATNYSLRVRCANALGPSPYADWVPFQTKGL

T2: Tyro3 ECD Ig1-Ig2-FNIII 1 (human) (UniProt Q06418)
T2 sequence (fragment): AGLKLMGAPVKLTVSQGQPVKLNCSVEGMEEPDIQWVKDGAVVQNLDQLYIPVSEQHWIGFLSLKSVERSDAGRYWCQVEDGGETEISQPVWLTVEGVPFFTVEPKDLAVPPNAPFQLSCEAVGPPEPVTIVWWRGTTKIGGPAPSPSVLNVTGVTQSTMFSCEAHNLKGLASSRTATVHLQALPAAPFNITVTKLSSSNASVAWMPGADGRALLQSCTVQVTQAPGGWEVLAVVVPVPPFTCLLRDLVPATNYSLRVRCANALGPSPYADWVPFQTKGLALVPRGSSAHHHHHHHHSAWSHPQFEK

T3: cynomolgus Tyro3 ECD, His-Strep tagged
T3 construct: also called cyno TYRO3 ECD 8hisstrep
T3 extracellular domain: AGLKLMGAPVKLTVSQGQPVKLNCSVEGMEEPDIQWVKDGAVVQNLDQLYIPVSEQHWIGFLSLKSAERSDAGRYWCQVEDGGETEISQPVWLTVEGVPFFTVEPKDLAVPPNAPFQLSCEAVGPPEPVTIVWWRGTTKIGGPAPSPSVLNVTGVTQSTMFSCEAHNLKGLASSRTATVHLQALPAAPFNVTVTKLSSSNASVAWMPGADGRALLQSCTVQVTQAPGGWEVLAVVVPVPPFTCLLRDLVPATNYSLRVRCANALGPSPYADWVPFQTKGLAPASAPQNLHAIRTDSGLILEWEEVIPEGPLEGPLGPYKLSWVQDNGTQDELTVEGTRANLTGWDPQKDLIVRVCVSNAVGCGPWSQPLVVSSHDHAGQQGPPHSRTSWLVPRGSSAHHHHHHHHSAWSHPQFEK

B1: anti-Tyro3 scFv 2718 (scFv, V domains shown)
VH: EVQLVQSGADVKKPGASLTISCQASGYTFTDYWISWVRQKPGKGLEWMGHINPMRSTTTYGPSFQGHVTISADRSTATAYLQWHSLEASDTAMYYCVRNDNHDDYTYTDDWGPGTLVTVSS
VL: SYELTQPPSVSVSPGQTARITCSGDALPKKYAYWYQQKSGQAPVLVIYEDTKRHSGIPERFSGSSSGTMATLTISGAQVEDEADYYCYSAEHRGNYAVFGGGTKLTVL
notes: Tested as a single-chain Fv made in E. coli
B2: IgG2413 (antibody, V domains shown)
VH: EVQLVQSGADVKKPGASLTISCQASGYTFTDYWISWVRQKPGKGLEWMGRIHTYQSSTRYGPSFQGHVTISADRSTATAYLQWRSLEASDTAMYYCVRHHSTTTANPYSSWGPGTLVTVSS
VL: B1 VL with T51D, H54L, A90T, H92I, R93N
notes: also called IGX2413

What was measured:
[1] = molecular target: T1, fibronectin type III domain FNIII-1 of human Tyro3 (human); assay: double sandwich ELISA on captured fragments of hTyro3 ECD
[2] = molecular target: T2, Tyro3 ECD Ig1-Ig2-FNIII 1 (human); assay: sandwich ELISA, Strep-tagged fragment captured on StrepMAB plate, scFv 10 µg/mL (Table 17), anti-FLAG-HRP
[3] = molecular target: T3, cynomolgus Tyro3 ECD, His-Strep tagged; assay: sandwich ELISA, Strep-tagged cynomolgus Tyro3 ECD captured on StrepMAB plate, IgG 3-fold from 3 µg/mL, anti-human IgG1-HRP
Protocol: A double sandwich ELISA was developed. This assay consisted in measuring the binding of the anti-Tyro3 antibodies to be tested on immobilized strep-tagged entire human Tyro3 ECD captured directly on ELISA plate pre-coated with an anti-strep mAb (StrepMAB-Immo coated microplates from IBA biotech). Briefly, the 96 wells of StrepMAB-Immo coated microplate were washed three times with 300 μL of the PBS Tween 0.2% (referred as ELISA washing solution). The capture of an excess of purified strep tagged hTyro3 ECD protein was achieved by a one hour incubation at room temperature. In these experiments, 3 μg of purified protein diluted in PBS, BSA 1% (referred as ELISA diluent solution) were immobilized per well. The wells were washed three times with 300 μL of the washing solution. The non-specific binding sites on the well surface were blocked during 60 min at room temperature with 200 μL/well of blocking solution (PBS, BSA 3%). The wells were washed five times with 300 μL of the washing solution. Then, 100 μl (in duplicates) of the different concentrations of anti-Tyro3 antibodies to be tested diluted in ELISA diluent solution, were added per well and allowed to incubate during 1 hour at room temperature. An Irrelevant control IgG2656 was also added in this experiment. For anti-Tyro3 antibodies in the ScFv format, experiments were performed with 6 concentrations in duplicates (FIG. 3A). […]

| Binder | binding [1] | binding [2] | binding [3] |
| --- | --- | --- | --- |
| B1 | binds | binds |  |
| B2 |  |  | binds |
